Test results from patent US9045484B2, “Inhibitors of the BMP signaling pathway” (The Brigham and Women's Hospital, Inc., priority 2008, dated 2015).
For at least one compound, name, drawing or mass did not settle the structure.

How the values were obtained:
hepcidin = assay: Liver hepcidin mRNA by quantitative RT-PCR after tail vein injection; assay type: in vivo, C57BL/6 mice; details: 6 h after single tail vein injection, 10 mg/kg; versus controls
[1] = test system: hepcidin expression in Hep3B cells; details: IL6 for 6 h, previously shown; cited from earlier work

Compound: c1cc(-c2cnn3cc(-c4ccc(OCCN5CCCCC5)cc4)cnc23)ccn1 [Dorsomorphin, reference compound]
- liver hepcidin mRNA levels (hepcidin): one-third of those in controls
- IL6 induction of hepcidin expression [1]: could be inhibited
